Laboratory results from PubChem BioAssay AID504834 (National Center for Advancing Translational Sciences (NCATS), 2011).
About 22,000 (6.9%) of roughly 320,000 compounds were called active. The shares of active, inactive and inconclusive entries below differ from those in the screen. Calls come from the whole dose curve; as a rule, active = well fitted inhibition curve with a large enough effect; inconclusive = small, poorly fitted or top-dose-only effect, or another doubt; inactive = no such curve, though single readings can be large or run the other way. Potencies beside an inconclusive call are fits to weak or partial responses and may not hold up.

Test: Primary qHTS for delayed death inhibitors of the malarial parasite plastid, 96 hour incubation
Conditions: P. falciparum luciferase reporter growth; series mostly up to 28.7 µM
From the text: The goal of this screen is to discover new antimalarial compounds that act by inhibiting the development of the apicoplast in the malarial parasite Plasmodium falciparum. The biochemical processes that make this organelle essential for erythrocytic stage parasites are not well understood. However, antibiotics such as azithromycin and tetracycline, which target the apicoplast translational machinery, have a potent antimalarial effect.
We have developed a cell-based assay that measures parasite growth based on the expression of an integrated copy of a firefly luciferase reporter. To detect small molecules that cause this "delayed death" phenotype, erythrocytes infected with the luciferase-expressing parasites were incubated with compounds for either one or two generations, corresponding to 48 and 96 hours, respectively. Compounds that inhibit parasite growth in the second generation, but not the first, should be enriched in antimalarials that target the apicoplast. Growth inhibition is detected by a decrease in luciferase activity.
Assay Provider: David Fidock and Eric Ekland, Columbia University
Keywords: NIH Roadmap, MLPCN, MLI, MLSMR, qHTS, NCGC, qHTS, malaria, luciferase, viability
Four microliters of infected erythrocytes (2% hematocrit, 0.05% parasitemia final concentration) in culture medium were dispensed and the plates incubated for 96 hours at 37 C in 5% CO2. Two microliters of luciferase detection reagent was added and luminescence was detected by a ViewLux (PerkinElmer) reader.
Potency is the fitted concentration of half-maximal effect.

Row | SMILES | Potency
1 | Cc1cc(/C=C2\C(=N)N3N=C(c4ccco4)SC3=NC2=O)c(C)n1Cc1ccccc1 | inconclusive: 18.5 µM [inhibitor, partial curve, poor fit]
2 | Cc1nnc(NC(=O)CCC(=O)NC2CCCCCCC2)s1 | inactive
3 | NC(=O)c1ccc(NC(=O)CN2CCN(c3ccc(Cl)cc3)CC2)cc1 | active: 11.7 µM
4 | Nc1c(C(=O)Nc2cccc(F)c2)nnn1-c1cccc(C(F)(F)F)c1 | inconclusive: 9.28 µM [inhibitor, partial curve, poor fit]
5 | O=C(Nc1cccc(F)c1)N1CC=C(c2ccc(Cl)cc2)CC1 | active: 5.86 µM
6 | Cc1oc(C(=O)O)cc1COc1ccc2c(C)cc(=O)oc2c1 | active: 2.08 µM
7 | COc1ccc(/C=N/OCC(=O)NC(c2ccccc2)c2ccccc2)cc1OC | active: 8.28 µM
8 | CC(=O)Nc1ccc(S(=O)(=O)Nc2ccccc2N2CCOCC2)cc1 | inconclusive: 1.65 µM [inhibitor, partial curve, poor fit]
9 | CCn1nc(NC(=O)c2ccncc2)c2cc3ccc(C)cc3nc21 | inactive
10 | Cc1nc2sccn2c(=O)c1S(=O)(=O)N1CCN(c2ccccc2)CC1 | inactive
11 | O=C(c1cc([N+](=O)[O-])ccc1N1CCCC1)N1CCCC1 | inconclusive: 18.5 µM [inhibitor, single point]
12 | CCC1(C)Cc2c(sc3nnn(Cc4ccccc4Cl)c(=O)c23)CO1 (stereo not given) | inconclusive: 2.62 µM [inhibitor, full curve, poor fit]
13 | O=C(NCc1cccnc1)c1ccc(COc2cccc3ccccc23)o1 | inconclusive: 0.0104 µM [inhibitor, full curve, poor fit]
14 | Cc1nc2c(c3c1[nH]c1ccccc13)C(O)CC(C)(C)C2 (stereo not given) | inactive
15 | Cc1ccc(N2CCN(C(=O)c3cccs3)CC2)c(C)c1 | inconclusive: 2.94 µM [inhibitor, partial curve, poor fit]
16 | CCn1c(=O)c(-c2nc3ccccc3[nH]2)c(O)c2ccccc21 | inconclusive: 0.294 µM [inhibitor, full curve, poor fit]
17 | COc1ccc(OCCCC(=O)Nc2cccc(SC)c2)cc1 | inconclusive: 20.8 µM [inhibitor, partial curve, poor fit]
18 | CCN(CC)C(=O)Cn1c(=O)c2ccccc2n2c(=S)sc(-c3cccc(C)c3)c12 | active: 2.08 µM
19 | C=CCn1c(=O)c(C(=O)NC(C)c2ccccc2)c(O)c2ccccc21 (stereo not given) | inconclusive: 5.86 µM [inhibitor, single point]
20 | CCNc1nc(NCC)n2c(SC(C)C(=O)c3ccc(C)cc3)nnc2n1 (stereo not given) | inconclusive: 2.08 µM [inhibitor, full curve, poor fit]
21 | Cc1coc2c(C)c3oc(=O)c(CCC(=O)NCc4ccccn4)c(C)c3cc12 | inconclusive: 0.0033 µM [inhibitor, full curve, poor fit]
22 | COc1cccc(CN=c2c([N+](=O)[O-])nn(-c3ccccc3C)n2O)c1 | inconclusive: 11.7 µM [inhibitor, single point]

Row | SMILES | Potency
23 | CCC(SC1=N/C(=C/c2ccccc2OC)C(=O)N1c1ccccc1)C(=O)Nc1cc(C)on1 (stereo not given) | inconclusive: 18.5 µM [inhibitor, single point]
24 | O=C(Nc1cc([N+](=O)[O-])ccc1N1CCCC1)c1cccs1 | active: 13.1 µM
25 | COc1ccc(-c2nc3cnccn3c2Nc2ccc(C)cc2)cc1 | inconclusive: 9.28 µM [inhibitor, partial curve, poor fit]
26 | S=c1[nH]nc(COc2ccccc2)n1/N=C/C=C/c1ccco1 | inactive
27 | CCSc1nc2ccccc2n1CCOc1ccccc1 | inconclusive: 11.7 µM [inhibitor, single point]
28 | COc1ccc2c(c1)O[C@@H](c1cccc(C(F)(F)F)c1)[C@H](OC(=O)Nc1ccc(OC(F)F)cc1)C2=O | inconclusive: 18.5 µM [inhibitor, single point]
29 | CC1(C)Cc2c(sc3c2c2ncnn2c2nnc(SCC(=O)NCc4ccco4)n32)CO1 | inconclusive: 0.586 µM [inhibitor, full curve, poor fit]
30 | C=CCSc1nc(C)cc(/C=C\c2ccccc2)c1C#N | inconclusive: 11.7 µM [inhibitor, single point]
31 | CCCNC(=O)c1ccc(C2SCC(=O)N2Cc2ccccc2)cc1 (stereo not given) | inconclusive: 18.5 µM [inhibitor, single point]
32 | CCC1(C)Cc2c(sc3c2c(=O)n(-c2ccccc2)c(=O)n3C)CO1 (stereo not given) | inactive
33 | C/C(O)=C/c1nc2ccccc2[nH]c1=O | inconclusive: 3.7 µM [inhibitor, single point]
34 | Cc1ccccc1NC(=O)CN1C(=O)COc2ccc(S(=O)(=O)N3CCCC3)cc21 | inconclusive: 18.5 µM [inhibitor, single point]
35 | COc1ccccc1S(=O)(=O)Cc1ccc(C(=O)NCc2ccccc2)o1 | inconclusive: 3.7 µM [inhibitor, partial curve]
36 | CCC(CC)(CC(=O)Nc1cccc(/C=C/c2nc(C3CCC3)cs2)c1)C(=O)O | inconclusive: 4.78 µM [inhibitor, partial curve]
37 | Cc1cccc(NC(=O)CCC(=O)N/N=C/c2ccco2)c1C | inactive
38 | O=C(NCCCN1CCc2ccccc2C1)Nc1ccc(Br)cc1 | inconclusive: 7.38 µM [inhibitor, partial curve, poor fit]
39 | COc1ccc([N+](=O)[O-])cc1NC(=O)C(C)N(C)Cc1ccc(Br)cc1 (stereo not given) | inconclusive: 11.7 µM [inhibitor, single point]
40 | CCCn1c(SCC(=O)NCCc2ccccc2)nnc1-c1cccnc1 | inconclusive: 8.28 µM [inhibitor, partial curve]
41 | FC(F)(F)COc1nc(N2CCOCC2)nc(N(c2ccccc2)c2ccccc2)n1 | inactive
42 | O=C(NCCC1=CCCCC1)c1ccc(Cl)c(S(=O)(=O)N2CCOCC2)c1 | inactive
43 | CCNC(=O)OCCC12CC3CC(CC(C3)C1)C2 | inconclusive: 0.37 µM [inhibitor, partial curve, poor fit]
44 | Cc1ccc(-c2nnc(NCc3nc4ccccc4[nH]3)c3ccccc23)cc1S(=O)(=O)N(C)C | inconclusive: 10.4 µM [inhibitor, single point]

Grouped by structure: the entries above with a CF3 group (three)
Row | SMILES | Potency
4 | Nc1c(C(=O)Nc2cccc(F)c2)nnn1-c1cccc(C(F)(F)F)c1 | inconclusive: 9.28 µM [inhibitor, partial curve, poor fit]
28 | COc1ccc2c(c1)O[C@@H](c1cccc(C(F)(F)F)c1)[C@H](OC(=O)Nc1ccc(OC(F)F)cc1)C2=O | inconclusive: 18.5 µM [inhibitor, single point]
41 | FC(F)(F)COc1nc(N2CCOCC2)nc(N(c2ccccc2)c2ccccc2)n1 | inactive

(continued)

Row | SMILES | Potency
45 | Oc1cccc(/C=N/N=C/c2cccc(O)c2O)c1O | inconclusive: 0.738 µM [inhibitor, full curve]
46 | Cc1ccccc1NC(=O)c1cc([N+](=O)[O-])ccc1NCCN1C(=O)CCC1=O | inconclusive: 0.37 µM [inhibitor, partial curve, poor fit]
47 | CC(C)OC(=O)C1C2C=CC3(CN(CC4CCCO4)C(=O)C13)O2 (stereo not given) | inconclusive: 18.5 µM [inhibitor, single point]
48 | O=C(NCCN1C(=O)S/C(=C\c2ccccc2F)C1=O)C1CCCN1C(=O)c1cccs1 (stereo not given) | inconclusive: 16.5 µM [inhibitor, single point]
49 | CN(CC(=O)Nc1cccc(S(=O)(=O)NC2=NCCCCC2)c1)Cc1ccc(C(C)(C)C)cc1 | inconclusive: 14.7 µM [inhibitor, single point]
50 | COc1cccc(OCc2cc(C(=O)N3CCN(C4CCCC4)CC3)no2)c1 | inconclusive: 18.5 µM [inhibitor, single point]
51 | CN(C)CCCn1c(SCC(=O)Nc2nccs2)nnc1-c1ccncc1 | inconclusive: 1.04 µM [inhibitor, partial curve]
52 | CCc1cc(C(=O)c2ccc(Br)cc2)c(NC(=O)CN(CC)CC)s1 | active: 8.28 µM
53 | CS(=O)(=O)N(CC(=O)Nc1ccc(Br)cc1F)C1CCCCC1 | inconclusive: 18.5 µM [inhibitor, partial curve, poor fit]
54 | CC(C)COP(=O)(c1ccc(N(C)C)cc1)C(Nc1ccccc1)c1cccnc1 (stereo not given) | inconclusive: 18.5 µM [inhibitor, single point]
55 | NC(=S)Cc1nc(-c2ccc(Cl)cc2)cs1 | inconclusive: 16.5 µM [inhibitor, single point]
56 | Cc1cccc([C@@H]2[C@@H]3C(=O)N(Cc4ccccc4)C(=O)[C@@H]3[C@]3(Cc4ccc(Cl)cc4)C(=O)N(c4cccc(Br)c4)C(=O)N23)c1 | inconclusive: 1.65 µM [inhibitor, full curve, poor fit]
57 | CSc1nn2c(C)c(C)c(C)nc2c1C#N | inactive
58 | CN(C)C(=O)Oc1c(Cl)cc(Cl)c2ccccc12 | inactive
59 | COC(=O)c1ccc(N2CCN(C)CC2)c(NC(=O)COc2ccc(OC)cc2)c1 | inconclusive: 10.4 µM [inhibitor, single point]
60 | O=C(COC(=O)c1c2c(nc3ccccc13)/C(=C/c1cccc([N+](=O)[O-])c1)CCC2)NC1CCS(=O)(=O)C1 (stereo not given) | inconclusive: 6.57 µM [inhibitor, partial curve, poor fit]
61 | Cc1sc(NC(=O)/C=C/c2ccc3c(c2)OCO3)nc1-c1ccccc1 | inactive
62 | COc1ccc(C=O)cc1OS(=O)(=O)c1ccc(NC(C)=O)cc1 | inconclusive: 4.15 µM [inhibitor, single point]
63 | O=C(O)c1occc1CSc1ccccc1 | inconclusive: 0.0657 µM [inhibitor, full curve, poor fit]
64 | O=C1NN=C(c2ccccc2)CC1c1c[nH]c2ccccc12 (stereo not given) | inconclusive: 13.1 µM [inhibitor, single point]
65 | CCCCNC(=O)CCn1c(=O)c2ccccc2n(CC(=O)Nc2ccccc2OCC)c1=O | inconclusive: 0.0415 µM [inhibitor, full curve, poor fit]
